For three molecules, binding results are on record in paper doi:10.1101/426734.

Protein sequences, listed by entry. Tags and fused reporters are not part of them. Lines headed by an entry give the natural chain unless they say otherwise; changes in a name come on top.
UniProt Q9EPR5: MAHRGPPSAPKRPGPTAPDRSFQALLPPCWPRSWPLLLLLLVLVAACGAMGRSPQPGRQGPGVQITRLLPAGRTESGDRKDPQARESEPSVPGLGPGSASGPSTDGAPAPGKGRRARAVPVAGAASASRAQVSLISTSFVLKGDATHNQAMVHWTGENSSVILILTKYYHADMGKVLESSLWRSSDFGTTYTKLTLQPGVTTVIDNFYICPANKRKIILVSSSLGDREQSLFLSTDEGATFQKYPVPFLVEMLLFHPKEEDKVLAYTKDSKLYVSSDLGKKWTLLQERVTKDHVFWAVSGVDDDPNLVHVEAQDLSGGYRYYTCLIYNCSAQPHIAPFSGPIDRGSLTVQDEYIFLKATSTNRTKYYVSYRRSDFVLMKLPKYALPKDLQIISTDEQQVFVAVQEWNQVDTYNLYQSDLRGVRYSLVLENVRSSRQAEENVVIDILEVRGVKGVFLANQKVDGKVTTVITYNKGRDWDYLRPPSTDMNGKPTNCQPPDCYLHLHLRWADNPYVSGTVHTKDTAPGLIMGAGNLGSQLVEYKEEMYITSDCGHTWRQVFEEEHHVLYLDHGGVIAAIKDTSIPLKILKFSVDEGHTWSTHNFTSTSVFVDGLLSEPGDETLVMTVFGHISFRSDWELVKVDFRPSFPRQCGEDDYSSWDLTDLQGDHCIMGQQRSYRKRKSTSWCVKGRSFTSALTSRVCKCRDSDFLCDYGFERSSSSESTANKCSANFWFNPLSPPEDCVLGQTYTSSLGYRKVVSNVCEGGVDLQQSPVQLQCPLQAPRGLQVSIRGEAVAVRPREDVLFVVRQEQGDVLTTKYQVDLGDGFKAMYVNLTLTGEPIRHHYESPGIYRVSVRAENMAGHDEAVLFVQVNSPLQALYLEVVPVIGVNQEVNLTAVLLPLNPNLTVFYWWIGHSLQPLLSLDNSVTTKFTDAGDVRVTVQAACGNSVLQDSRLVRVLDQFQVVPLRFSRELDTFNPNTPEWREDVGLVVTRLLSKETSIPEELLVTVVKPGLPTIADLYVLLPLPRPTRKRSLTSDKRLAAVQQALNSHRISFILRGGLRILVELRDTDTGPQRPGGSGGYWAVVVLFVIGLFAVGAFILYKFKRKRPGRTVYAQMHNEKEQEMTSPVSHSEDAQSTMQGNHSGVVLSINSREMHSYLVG

Results are given in words; binding and its absence hold for the method and conditions named. Binding seen in cells or lysates may run through a third protein. Binding calls can cover weak binding; strength is not graded here.

For test [1], the target named is murine SorCS2 tagged with GFP at the C-terminus (mouse) (UniProt Q9EPR5). Briefly: co-IP.
The target of test [2] is endogenous SorCS2 (mouse hippocampus) (mouse (endogenous in mouse hippocampus)). Description: co-IP.

B1: rat EAAT3 (protein, UniProt P51907 1-523)
chain: MGKPTSSGCDWRRFLRNHWLLLSTVAAVVLGIVVGVLVRGHSELSNLDKFYFAFPGEILMRMLKLVILPLIISSMITGVAALDSNVSGKIGLRAVVYYFSTTVIAVILGIVLVVSIKPGVTQKVNEINRTGKTPEVSTVDAMLDLIRNMFPENLVQACFQQYKTKREEVKPASDPGGNQTEVSVTTAMTTMSENKTKEYKIVGLYSDGINVLGLIIFCLVFGLVIGKMGEKGQILVDFFNALSDATMKIVQIIMCYMPIGILFLIAGKIIEVEDWEIFRKLGLYMATVLSGLAIHSLVVLPLIYFIVVRKNPFRFALGMAQALLTALMISSSSATLPVTFRCAEEKNHVDKRITRFVLPVGATINMDGTALYEAVAAVFIAQLNGMDLSIGQIITISITATAASIGAAGVPQAGLVTMVIVLSAVGLPAEDVTLIIAVDWLLDRFRTMVNVLGDAFGTGIVEKLSKKELEQVDVSSEVNIVNPFALEPTILDNEDSDTKKSYVNGGFSVDKSDTISFTQTSQF
Regarding B1, the binding result in test [1] is recorded as “binds”.

B2: endogenous EAAT3 (mouse) (protein, UniProt P51906 1-523)
chain: MGKPTSSGCDWRRFLRNHWLLLSTVAAVVLGIVLGVVVRGHSELSNLDKFYFAFPGEILMRMLKLVILPLIVSSMITGVAALDSNVSGKIGLRAVVYYFSTTVIAVILGIVLVVSIKPGVTQKVNDINRTGKTPEVSTMDAMLDLIRNMFPENLVQACFQQYKTKREEVKPVGDPGGNATEVSVTTAMTTMSENKTKEYKIVGLYSDGINVLGLIIFCLVFGLVIGKMGEKGQILVDFFNALSDATMKIVQIIMCYMPIGILFLIAGKIIEVEDWEIFRKLGLYMATVLSGLAIHSLIVLPLLYFIVVRKNPFRFALGMAQALLTALMISSSSATLPVTFRCAEEKNQVDKRITRFVLPVGATINMDGTALYEAVAAVFIAQLNGLDLSIGQIVTISITATAASIGAAGVPQAGLVTMVIVLSAVGLPAEDVTLIIAVDWLLDRFRTMVNVLGDAFGTGIVEKLSKKELEQMDVSSEVNIVNPFALEPTTLDNEDSDTKKSYVNGGFAVDKSDTISFTQTSQF
Consider B2, for which the binding entry in test [2] was “binds”.

B3: JWA (protein, UniProt Q8R5J9 1-188)
chain: MDVNLAPLRAWDDFFPGSDRFARPDFRDISKWNNRVVSNLLYYQTNYLVVAAMMISVVGFLSPFNMILGGVIVVLVFMGFVWAAHNKDILRRMKKQYPTAFVMVVMLASYFLISMFGGVMVFVFGITLPLLLMFIHASLRLRNLKNKLENKMEGIGLKKTPMGIILDALEQQEDNINKFADYISKARE
For B3, in test [2], the binding result is listed as “no binding”.
